# Measurements reported in PubChem BioAssay AID1259284 (Sanger Institute, 2017)
# Screen: 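Kinase knock-downs that cut colorectal cancer cell growth alone or with targeted drugs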 (primary screen)
# Cell system: SW48 human colorectal cancer cells
# Reagents: siRNA pool against human genes
# Treatment: anchor drug BYL719 at 1 µM, cetuximab at 5 µg/ml or trametinib at 10 nM, or DMSO vehicle alone
# Read-out: 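Cell viability relative to non-targeting pool wells, replicate mean, with robust z-scores and drug synergy scores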
# Direction: robust z-score, no drug: higher = more cells survive knock-down; viability, no drug: higher = more viable cells; synergy with BYL719 and synergy with trametinib and synergy with cetuximab: higher = stronger combined killing with drug
# Hit rule: 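a knock-down is essential if viability without drug gives a robust z-score under -3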
# Meaning of the calls: active = essential without drug; inactive = no change without drug
# The deposit covers 794 reagents; this is a random part of them. 16 of all reagents (2%) count as active. 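Calls concern knock-down without drug only; drug synergy was judged apart, with scores above 0.15 taken as synergy.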 No viability above 1 is reported: the scale is capped. The record does not give: the amount of reagent, the time to read-out.
gene symbol,"robust z-score, no drug","viability, no drug (fraction of control)",synergy with BYL719,synergy with trametinib,synergy with cetuximab,outcome
TNK2 (tyrosine kinase non receptor 2),0.426,1,-0.237,-0.23,-0.0701,inactive
NME2 (NME/NM23 nucleoside diphosphate kinase 2),0.426,1,-0.155,-0.0227,-0.0565,inactive
ETNK1 (ethanolamine kinase 1),0.426,1,-0.303,-0.335,-0.165,inactive
CDK11B (cyclin dependent kinase 11B),0.426,1,-0.097,-0.0819,-0.165,inactive
TEK (TEK receptor tyrosine kinase),0.426,1,0.0267,-0.0391,0.0577,inactive
PEAK1 (pseudopodium enriched atypical kinase 1),-0.947,0.882,-0.0544,0.0513,-0.0213,inactive
AURKC (aurora kinase C),0.426,1,-0.0905,0.0138,-0.069,inactive
PHKA2 (phosphorylase kinase regulatory subunit alpha 2),0.426,1,-0.158,-0.0354,0.0395,inactive
SOS2 (SOS Ras/Rho guanine nucleotide exchange factor 2),-0.364,0.932,-0.0412,-0.126,-0.0697,inactive
SMG1,-1.83,0.806,-0.156,-0.13,-0.327,inactive
EPHA4 (EPH receptor A4),0.426,1,-0.151,-0.099,-0.1,inactive
PANK1 (pantothenate kinase 1),0.426,1,-0.279,-0.156,-0.0951,inactive
NUAK1 (NUAK family kinase 1),0.426,1,-0.149,0.0269,-0.106,inactive
PIP5KL1 (phosphatidylinositol-4-phosphate 5-kinase like 1),0.426,1,-0.178,-0.13,-0.165,inactive
PHKA1 (phosphorylase kinase regulatory subunit alpha 1),0.426,1,-0.237,-0.0772,-0.114,inactive
RTN4 (reticulon 4),0.426,1,-0.264,-0.0413,-0.119,inactive
STRADB (STE20 related adaptor beta),0.426,1,-0.205,-0.0837,-0.165,inactive
MYH10 (myosin heavy chain 10),0.426,1,-0.241,0.0167,-0.0745,inactive
CLSPN (claspin),-0.638,0.909,-0.122,-0.0345,0.0264,inactive
PRKCI (protein kinase C iota),0.426,1,0.0231,-0.0819,0.0064,inactive
TWF2 (twinfilin actin binding protein 2),0.426,1,-0.134,-0.153,-0.135,inactive
STK33 (serine/threonine kinase 33),0.426,1,-0.123,0.00385,-0.0647,inactive
ELP1 (elongator acetyltransferase complex subunit 1),-0.119,0.953,-0.0782,0.03,0.0335,inactive
DGUOK (deoxyguanosine kinase),0.426,1,-0.279,-0.191,-0.165,inactive
STK3 (serine/threonine kinase 3),0.426,1,-0.158,-0.257,-0.165,inactive
WHR1 (winged helix repair factor 1),0.426,1,-0.168,-0.0224,-0.165,inactive
TAF1 (TATA-box binding protein associated factor 1),0.426,1,-0.167,-0.14,-0.156,inactive
BRWD1 (bromodomain and WD repeat domain containing 1),0.426,1,-0.236,-0.227,-0.109,inactive
NME4 (NME/NM23 nucleoside diphosphate kinase 4),0.426,1,-0.251,-0.286,-0.165,inactive
STK4 (serine/threonine kinase 4),0.426,1,-0.25,-0.231,-0.0325,inactive
"PFKM (phosphofructokinase, muscle)",0.426,1,-0.327,-0.208,-0.155,inactive
NUP98 (nucleoporin 98 and 96 precursor),0.0401,0.967,-0.125,0.0229,-0.113,inactive
CAMK2N1 (calcium/calmodulin dependent protein kinase II inhibitor 1),-1.17,0.863,-0.112,-0.0152,-0.054,inactive
HSPB8 (heat shock protein family B (small) member 8),0.426,1,-0.275,0.287,-0.165,inactive
